Assay [1] concerns the target T1, annexin A1 (UniProt P04083).
T1 sequence: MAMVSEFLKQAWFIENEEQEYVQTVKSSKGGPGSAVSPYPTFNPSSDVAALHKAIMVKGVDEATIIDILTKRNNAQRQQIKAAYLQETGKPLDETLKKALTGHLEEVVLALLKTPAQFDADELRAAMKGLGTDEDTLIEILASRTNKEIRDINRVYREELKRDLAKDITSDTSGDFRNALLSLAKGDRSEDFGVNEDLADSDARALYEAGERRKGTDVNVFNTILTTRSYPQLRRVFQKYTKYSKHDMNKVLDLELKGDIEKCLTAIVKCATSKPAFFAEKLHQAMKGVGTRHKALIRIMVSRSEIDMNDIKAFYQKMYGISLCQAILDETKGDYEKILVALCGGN
Description: co-IP; reciprocal Co-IP of ANXA1 and UCP1; cells and conditions not told in the main text.

The target in assay [2] is T1, annexin A1. In words: co-IP; IP (Fig. S2H); bait, cells and conditions not told in the main text.

These are yes or no findings as the source states them, for the method shown. In cells and extracts the contact can be indirect. Some binding calls cover weakened binding; strength is not graded here.

B1: uncoupling protein 1 (protein, UniProt P25874 1-307)
chain: MGGLTASDVHPTLGVQLFSAGIAACLADVITFPLDTAKVRLQVQGECPTSSVIRYKGVLGTITAVVKTEGRMKLYSGLPAGLQRQISSASLRIGLYDTVQEFLTAGKETAPSLGSKILAGLTTGGVAVFIGQPTEVVKVRLQAQSHLHGIKPRYTGTYNAYRIIATTEGLTGLWKGTTPNLMRSVIINCTELVTYDLMKEAFVKNNILADDVPCHLVSALIAGFCATAMSSPVDVVKTRFINSPPGQYKSVPNCAMKVFTNEGPTAFFKGLVPSFLRLGSWNVIMFVCFEQLKRELSKSRQTMDCAT
Consider B1, for which, in the assay with annexin A1 [1], the binding entry is listed as “no binding”.

B2: thioredoxin (protein, UniProt P10599 1-105)
chain: MVKQIESKTAFQEALDAAGDKLVVVDFSATWCGPCKMIKPFFHSLSEKYSNVIFLEVDVDDCQDVASECEVKCMPTFQFFKKGQKVGEFSGANKEKLEATINELV
As to B2, the binding entry in the assay with annexin A1 [2] is reported as “binds”.
